This test concerns the target FGFR3-HA (UniProt P22607). Put plainly: co-IP; HEK293T co-transfected with wild-type mouse Nodal and FGFR3; antibody of the IP not told for this experiment.

Chains of the proteins cited; added tags and fusions are not shown. Lines headed by an entry give the natural chain unless they say otherwise; changes in a name come on top. Residues count along the entry.
UniProt P22607, residues 23-806: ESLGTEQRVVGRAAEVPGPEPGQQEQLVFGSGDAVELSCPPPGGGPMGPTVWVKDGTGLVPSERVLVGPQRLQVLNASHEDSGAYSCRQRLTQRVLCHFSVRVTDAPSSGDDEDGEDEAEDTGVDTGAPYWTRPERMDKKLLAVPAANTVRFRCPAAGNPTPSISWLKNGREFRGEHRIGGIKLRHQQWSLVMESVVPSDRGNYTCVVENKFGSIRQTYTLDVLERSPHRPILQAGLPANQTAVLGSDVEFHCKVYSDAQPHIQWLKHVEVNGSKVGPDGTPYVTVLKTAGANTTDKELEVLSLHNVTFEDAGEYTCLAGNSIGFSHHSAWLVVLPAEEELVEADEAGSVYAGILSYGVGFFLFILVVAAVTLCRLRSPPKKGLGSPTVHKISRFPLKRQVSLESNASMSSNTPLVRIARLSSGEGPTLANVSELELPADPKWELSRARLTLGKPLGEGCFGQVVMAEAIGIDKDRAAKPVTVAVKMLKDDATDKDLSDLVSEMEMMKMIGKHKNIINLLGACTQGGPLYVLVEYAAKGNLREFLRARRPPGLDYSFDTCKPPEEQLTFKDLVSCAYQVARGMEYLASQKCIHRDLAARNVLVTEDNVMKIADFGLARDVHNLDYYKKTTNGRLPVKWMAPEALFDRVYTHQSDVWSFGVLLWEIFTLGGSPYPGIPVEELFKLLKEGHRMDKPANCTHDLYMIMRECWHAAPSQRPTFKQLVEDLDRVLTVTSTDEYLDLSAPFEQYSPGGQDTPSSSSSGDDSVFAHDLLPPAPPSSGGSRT
UniProt P43021: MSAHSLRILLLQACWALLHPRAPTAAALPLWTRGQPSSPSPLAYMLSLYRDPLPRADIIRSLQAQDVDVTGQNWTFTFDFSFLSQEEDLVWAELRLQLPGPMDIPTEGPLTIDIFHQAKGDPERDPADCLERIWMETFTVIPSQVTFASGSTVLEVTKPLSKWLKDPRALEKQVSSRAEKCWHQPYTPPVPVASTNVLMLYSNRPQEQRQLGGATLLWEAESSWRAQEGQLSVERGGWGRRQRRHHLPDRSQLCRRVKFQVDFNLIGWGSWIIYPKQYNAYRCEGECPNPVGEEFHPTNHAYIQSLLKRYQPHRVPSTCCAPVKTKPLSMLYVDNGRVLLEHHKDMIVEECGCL

These are yes or no findings as the source states them, for the method shown. In cells and extracts the contact can be indirect. A result given as binding can be weak or reduced; the word gives no strength.

On to “proNodal made from wild-type mouse Nodal (uncleaved precursor) (from UniProt P43021) (ligand)”, for which the binding entry is on record as “binds”.
